{"source": "PubChem BioAssay AID1259254 (NCATS, 2017)", "assay": "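Gene knock-downs that lead to re-replication, shown by excess G2 DNA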 (primary screen)", "system": "human HCT116 colorectal cancer cells", "knock-down reagent": "single siRNA against human genes", "timing": "3 days", "read-out": "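Nuclei stained with Hoechst and imaged; cell-cycle phase assigned by DNA content; G2 share scaled per plate, non-targeting siRNA 0%, GMNN siRNA 100%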", "reading the numbers": "G2 robust z-score and G2 cells, % of GMNN control: higher = more G2 cells, more excess DNA replication", "call rule": "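Active siRNAs have a G2 robust z of 5 or more median absolute deviations over the median, which in these data means about 38% or higher of GMNN control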", "note": "The whole screen tested about 59,000 reagents; this is a random part of them. About 1,550 of all reagents (2.6%) count as active. 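G2 share is only a proxy for re-replication; each gene was hit by three separate siRNAs, and active genes were retested.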 Unmarked entries are inactive. Reagents against one gene are numbered here. Not all columns of the deposit are shown. Not given: the amount of reagent."}
The opening 2 records as a preview:
{"target gene": "FAT4 (FAT atypical cadherin 4)", "reagent": 1, "G2 robust z-score": -1.16, "G2 cells, % of GMNN control": -5.22}
{"target gene": "FAT4 (FAT atypical cadherin 4)", "reagent": 2, "G2 robust z-score": -0.509, "G2 cells, % of GMNN control": -0.615}

Main list, repeating the preview:
{"target gene": "FAT4 (FAT atypical cadherin 4)", "reagent": 1, "G2 robust z-score": -1.16, "G2 cells, % of GMNN control": -5.22}
{"target gene": "FAT4 (FAT atypical cadherin 4)", "reagent": 2, "G2 robust z-score": -0.509, "G2 cells, % of GMNN control": -0.615}
{"target gene": "FAT4 (FAT atypical cadherin 4)", "reagent": 3, "G2 robust z-score": -0.593, "G2 cells, % of GMNN control": -1.2}
{"target gene": "ZNF689 (zinc finger protein 689)", "reagent": 1, "G2 robust z-score": 0.364, "G2 cells, % of GMNN control": 5.53}
{"target gene": "ZNF689 (zinc finger protein 689)", "reagent": 2, "G2 robust z-score": 3.47, "G2 cells, % of GMNN control": 27.4}
{"target gene": "ZNF689 (zinc finger protein 689)", "reagent": 3, "G2 robust z-score": 1.69, "G2 cells, % of GMNN control": 14.8}
{"target gene": "ZDHHC24 (zDHHC palmitoyltransferase 24)", "reagent": 1, "G2 robust z-score": 1.55, "G2 cells, % of GMNN control": 13.9}
{"target gene": "ZDHHC24 (zDHHC palmitoyltransferase 24)", "reagent": 2, "G2 robust z-score": 1.21, "G2 cells, % of GMNN control": 11.5}
{"target gene": "ZDHHC24 (zDHHC palmitoyltransferase 24)", "reagent": 3, "G2 robust z-score": 3.09, "G2 cells, % of GMNN control": 24.7}
{"target gene": "THAP2 (THAP domain containing 2)", "reagent": 1, "G2 robust z-score": 0.403, "G2 cells, % of GMNN control": 5.8}
{"target gene": "THAP2 (THAP domain containing 2)", "reagent": 2, "G2 robust z-score": -0.0803, "G2 cells, % of GMNN control": 2.4}
{"target gene": "THAP2 (THAP domain containing 2)", "reagent": 3, "G2 robust z-score": "6.96 (active)", "G2 cells, % of GMNN control": 52}
{"target gene": "COQ8B (coenzyme Q8B)", "reagent": 1, "G2 robust z-score": -0.259, "G2 cells, % of GMNN control": 1.15}
{"target gene": "COQ8B (coenzyme Q8B)", "reagent": 2, "G2 robust z-score": -1.48, "G2 cells, % of GMNN control": -7.44}
{"target gene": "COQ8B (coenzyme Q8B)", "reagent": 3, "G2 robust z-score": -0.349, "G2 cells, % of GMNN control": 0.513}
{"target gene": "ARSK (arylsulfatase family member K)", "reagent": 1, "G2 robust z-score": 1.42, "G2 cells, % of GMNN control": 12.9}
{"target gene": "ARSK (arylsulfatase family member K)", "reagent": 2, "G2 robust z-score": 0.125, "G2 cells, % of GMNN control": 3.84}
{"target gene": "ARSK (arylsulfatase family member K)", "reagent": 3, "G2 robust z-score": 0.00558, "G2 cells, % of GMNN control": 3.01}
{"target gene": "CFL1 (cofilin 1)", "reagent": 1, "G2 robust z-score": "8.26 (active)", "G2 cells, % of GMNN control": 61.1}
{"target gene": "CFL1 (cofilin 1)", "reagent": 2, "G2 robust z-score": 1.39, "G2 cells, % of GMNN control": 12.7}
{"target gene": "CFL1 (cofilin 1)", "reagent": 3, "G2 robust z-score": 1.3, "G2 cells, % of GMNN control": 12.1}
{"target gene": "F11R (F11 receptor)", "reagent": 1, "G2 robust z-score": -1.26, "G2 cells, % of GMNN control": -5.93}
{"target gene": "F11R (F11 receptor)", "reagent": 2, "G2 robust z-score": 0.379, "G2 cells, % of GMNN control": 5.64}
{"target gene": "F11R (F11 receptor)", "reagent": 3, "G2 robust z-score": -1.12, "G2 cells, % of GMNN control": -4.94}
{"target gene": "PLCB3 (phospholipase C beta 3)", "reagent": 1, "G2 robust z-score": -1.17, "G2 cells, % of GMNN control": -5.24}
{"target gene": "PLCB3 (phospholipase C beta 3)", "reagent": 2, "G2 robust z-score": -1.02, "G2 cells, % of GMNN control": -4.23}
{"target gene": "PLCB3 (phospholipase C beta 3)", "reagent": 3, "G2 robust z-score": 4.93, "G2 cells, % of GMNN control": 37.7}
{"target gene": "TNRC6C (trinucleotide repeat containing adaptor 6C)", "reagent": 1, "G2 robust z-score": -0.81, "G2 cells, % of GMNN control": -2.73}
{"target gene": "TNRC6C (trinucleotide repeat containing adaptor 6C)", "reagent": 2, "G2 robust z-score": -0.562, "G2 cells, % of GMNN control": -0.99}
{"target gene": "TNRC6C (trinucleotide repeat containing adaptor 6C)", "reagent": 3, "G2 robust z-score": -0.743, "G2 cells, % of GMNN control": -2.26}
